From article PMC12741935 (Alzheimer's & Dementia, 2025)

System: brain proteome
Assay: Brain proteomics (DIA LC-MS/MS) after chronic NVS-PAK1-1 100 mg/kg BID PO vs vehicle in 5xFAD mice
Format: in vivo
Conditions: for number of proteins down in 5xFAD and up in NVS-PAK1-1 / number of proteins up in 5xFAD and down in NVS-PAK1-1: either cohort
Method: A total of 91 brain samples were prepared from mice in this study and analyzed by mass spectrometry proteomics. One third of the mixed‐chopped left hemisphere tissue was homogenized in 8 M urea lysis buffer (8 M urea, 10 mM Tris, 100 mM NaH2PO4, pH 8.5) with HALT protease and phosphatase inhibitor cocktail (Thermo Fisher) and sonicated for three cycles consisting of 5 seconds of active sonication at 30% amplitude, followed by 15 seconds on ice. Samples were then centrifuged for 5 minutes at 15,000 g and the supernatant was transferred to a new tube. Protein concentration was determined by bicinchoninic acid (BCA) assay (Pierce). For protein digestion, 200 µg of each sample was aliquoted and volumes normalized with additional lysis buffer. Samples were reduced with 5 mM DTT at room temperature for 30 minutes, followed by 10 mM iodoacetamide (IAA) alkylation in the dark for another 30 minutes. Lysyl endopeptidase (Wako) at 1:25 (w/w) was added, and digestion allowed to proceed overnight. Samples were then 7‐fold diluted with 50 mM ammonium bicarbonate. Trypsin (Promega) was then added at 1:25 (w/w) and digestion proceeded overnight. The peptide solutions were acidified to a final concentration of 1% (vol/vol) FA and 0.1% (vol/vol) TFA and desalted with a 10 mg HLB column (Oasis). Each HLB column was first rinsed with 1 mL of methanol, washed with 1 mL 50% (vol/vol) acetonitrile (ACN), and equilibrated with 2 × 1 mL 0.1% (vol/vol) TFA. The samples were then loaded onto the column and washed with 2 × 1 mL 0.1% (vol/vol) TFA. Elution was performed with 0.5 mL 50% (vol/vol) ACN. Samples were split into 50 µL and 400 µL aliquots. Residuals from all samples were combined to create a global internal standard pool.
Samples were resuspended in an equal volume of loading buffer (0.1% FA, 0.03% TFA, 1% ACN) and analyzed by LC‐MS/MS. Peptide eluents (1 µg) were separated on a Water's CSH (15 cm × 150 µM internal diameter [ID] with 1.7 µm CSH resin) by a Dionex Ultimate 3000 RSLCnano (Thermo Fisher). Buffer A was water with 0.1% (vol/vol) formic acid, and buffer B was 80% (vol/vol) acetonitrile in water with 0.1% (vol/vol) FA. Elution was performed over a 30 minute gradient. The gradient was from 1% to 99% solvent B. Peptides were monitored on an Orbitrap Fusion Lumos mass spectrometer (Thermo Fisher). Each cycle consisted of one full scan (MS1) performed with an m/z range of 380 to 985 at a 60,000 resolution at standard settings and 30 data independent scans (DIA) in 1.5 seconds. The higher energy collision‐induced dissociation (HCD) tandem scans were collected at 30% collision energy with an isolation of 10 m/z, a resolution of 15,000, an AGC setting of 200% normalized AGC target, and a maximum injection time set to 40 ms.
Raw data files were converted to mzML format for downstream processing using ThermoRawFilerParser v.1.4.4.[30] The data were processed using Data‐Independent Acquisition by Neural Network (DIA‐NN) v.1.9.1.[31] A spectral library was generated using all canonical mouse proteins from UniProt and SwissProt (accessed September 24, 2024) and contaminants from the Common Repository of Adventitious Proteins (cRAP) database [https://www.thegpm.org/crap/]; these contaminant proteins were excluded from normalization and downstream analysis. DIA‐NN was run using parameters specified as follows: precursor charge was set from 1 to 4 and precursor m/z was set from 200 to 5000. Enzyme digestion was set to strict trypsin with 1 allowed missed cleavage, peptide length was set from 7 to 50, and peptide m/z was set from 150 to 3000. The maximum number of variable modifications was set to 3 and methionine oxidation was allowed as a variable modification. Cysteine carbamidomethylation was allowed as a fixed modification. MS1 and MS2 mass accuracy (in ppm) were set using autodetect and the scan window was set using autodetect. The false discovery rate (FDR) threshold was set to 1%. […]

For CC(C)NC(=O)N1CC[C@H](NC2=Nc3cc(F)ccc3N(CC(F)F)c3ccc(Cl)cc32)C1 [NVS‐PAK1‐1, (S)‐3‐([2‐chloro‐5‐(2,2‐difluoroethyl)‐8‐fluoro‐5H‐dibenzo[b,e][1,4]diazepin‐11‐yl]amino)‐N‐isopropylpyrrolidine‐1‐carboxamide], the “number of significantly differentially expressed proteins, NVS-PAK1-1 vs vehicle-treated 5xFAD” value (shortened to “number of significantly differentially”) (aged cohort females) was 101, the “number of significantly differentially” value (aged cohort males) was 134 and the “number of proteins down in 5xFAD and up in NVS-PAK1-1” value (females, adjusted P ≤ 0.05) was 22. The “number of proteins up in 5xFAD and down in NVS-PAK1-1” value (females, adjusted P ≤ 0.05) was 63, the “number of proteins down in 5xFAD and up in NVS-PAK1-1” value (males, adjusted P ≤ 0.05) was 24 and the “number of proteins up in 5xFAD and down in NVS-PAK1-1” value (males, adjusted P ≤ 0.05, overlap not significant) was 20. The “number of significantly differentially” value (young cohort females) was 190 and the “number of significantly differentially” value (young cohort males) was 129.
